This passage reports binding results from patent EP4621052A1, “IMMUNE CELL TARGETING PROBE, PRE-TARGETING RECOGNITION AND DRUG DELIVERY SYSTEM BASED ON PROBE, AND USE THEREOF” (Guangdong Keyangle Life Technology Co., Ltd., priority 2022, dated 2024).

The experiment concerns the target T1, Peptide segment KS24 (…).
T1 sequence (peptide): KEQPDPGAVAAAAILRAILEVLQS
The experiment can be described thus: indirect ELISA, peptide as coating antigen. Background: ELISA stands for enzyme-linked immunosorbent assay.

Results are given in words; binding and its absence hold for the method and conditions named. Some binding calls cover weakened binding; strength is not graded here.

B1: KA-001 monoclonal antibody (antibody, mouse IgG1, kappa, V domains shown)
VH: DVKIVESGGGLVKLGGSLKLSCAASGFTFSRNYMSWVRQTPEKRLELVAGINNNGGSTYYPDTVKGRFTISRDNAKNTLYLQMSSLRSEDTAIYYCAKRGFITTVGAMDYWGQGISVTVSS
VL: DIQMTQTTFSLSASLGDRVTISCRASQDISNYLNWYQQIPDGTVKLLIYYTSRLHSGVPSRFSGSGSGTDYSLTISNLEQEDIATYFCQQVHTLPYTFGGGTKLEMKR
Take B1: the binding result is given as “binds”.
